Results taken from article PMC5356007, “A conserved inter-domain communication mechanism regulates the ATPase activity of the AAA-protein Drg1” (Scientific Reports, 2017).
These are yes or no findings as the source states them, for the method shown. Some binding calls cover weakened binding; strength is not graded here.

Protein sequences, listed by entry. Tags and fused reporters are not part of them.
UniProt Q07915: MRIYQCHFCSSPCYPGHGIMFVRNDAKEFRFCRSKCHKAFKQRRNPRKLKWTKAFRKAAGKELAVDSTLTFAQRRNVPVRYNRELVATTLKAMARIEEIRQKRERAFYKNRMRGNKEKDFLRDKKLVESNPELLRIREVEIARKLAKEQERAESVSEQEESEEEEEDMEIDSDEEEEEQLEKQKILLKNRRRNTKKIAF

T1: Arx1-TAP (shuttling pre-60S maturation factor Arx1, bait of the tandem affinity purification) (S. cerevisiae (endogenous in the yeast strains)) (UniProt Q03862)
T1 sequence: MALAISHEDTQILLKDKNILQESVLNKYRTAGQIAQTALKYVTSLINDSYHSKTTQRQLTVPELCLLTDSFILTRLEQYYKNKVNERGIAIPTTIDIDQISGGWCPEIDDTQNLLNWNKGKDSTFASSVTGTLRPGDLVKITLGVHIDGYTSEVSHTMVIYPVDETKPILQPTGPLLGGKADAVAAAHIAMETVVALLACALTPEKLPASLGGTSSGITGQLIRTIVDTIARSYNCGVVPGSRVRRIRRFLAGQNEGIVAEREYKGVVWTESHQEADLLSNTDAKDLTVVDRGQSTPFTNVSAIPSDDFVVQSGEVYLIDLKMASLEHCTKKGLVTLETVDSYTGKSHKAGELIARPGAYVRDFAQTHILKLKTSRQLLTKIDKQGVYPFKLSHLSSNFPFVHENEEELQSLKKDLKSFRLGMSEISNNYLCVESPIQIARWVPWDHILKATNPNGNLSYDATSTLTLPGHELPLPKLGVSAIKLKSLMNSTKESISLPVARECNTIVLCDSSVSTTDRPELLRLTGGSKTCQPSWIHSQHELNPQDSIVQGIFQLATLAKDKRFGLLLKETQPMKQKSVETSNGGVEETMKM


What was measured:
[1] = target: T1, Arx1-TAP (shuttling pre-60S maturation factor Arx1, bait of the tandem affinity purification) (S. cerevisiae (endogenous in the yeast strains)); assay: tandem affinity purification (TAP) with western blotting; Arx1-TAP as bait; pre-60S particles purified from strains expressing drg1-21, drg1-18 or wildtype DRG1 from their endogenous promoter; cells grown in YPD; elution from calmodulin beads, TCA precipitation, SDS-PAGE and western blot
[2] = target: T1, Arx1-TAP (shuttling pre-60S maturation factor Arx1, bait of the tandem affinity purification) (S. cerevisiae (endogenous in the yeast strains)); assay: tandem affinity purification (TAP) with western blotting; Arx1-TAP as bait; pre-60S particles purified from DRG1 wildtype strains with plasmids for overexpression of GST-Drg1 or GST-Drg1-21 (CUP1 promoter, 0.5 mM CuSO4, 3 hours) or the empty vector; SDS-PAGE and western blot

| binding [1] | binding [2] | Molecule |
| --- | --- | --- |
| binds | – | Rlp24 (Ribosomal-like protein 24) (from UniProt Q07915 1-199) |
| binds | binds | Mex67 (protein, UniProt Q99257 1-599) MSGFHNVGNINMMAQQQMQQNRIKISVRNWQNATMNDLINFISRNARVAVYDAHVEGPLVIGYVNSKAEAESLMKWNGVRFAGSNLKFELLDNNGASAGTSDTISFLRGVLLKRYDPQTKLLNLGALHSDPELIQKGVFSSISTQSKMFPAMMKLASTEKSLIVESVNLADNQLKDISAISTLAQTFPNLKNLCLANNQIFRFRSLEVWKNKFKDLRELLMTNNPITTDKLYRTEMLRLFPKLVVLDNVIVRDEQKLQTVYSLPMKIQQFFFENDALGQSSTDFATNFLNLWDNNREQLLNLYSPQSQFSVSVDSTIPPSTVTDSDQTPAFGYYMSSSRNISKVSSEKSIQQRLSIGQESINSIFKTLPKTKHHLQEQPNEYSMETISYPQINGFVITLHGFFEETGKPELESNKKTGKNNYQKNRRYNHGYNSTSNNKLSKKSFDRTWVIVPMNNSVIIASDLLTVRAYSTGAWKTASIAIAQPPQQQASVLPQVASMNPNITTPPQPQPSVVPGGMSIPGAPQGAMVMAPTLQLPPDVQSRLNPVQLELLNKLHLETKLNAEYTFMLAEQSNWNYEVAIKGFQSSMNGIPREAFVQF |
| binds | binds | Nog1 (protein, UniProt Q02892 1-647) MQLSWKDIPTVAPANDLLDIVLNRTQRKTPTVIRPGFKITRIRAFYMRKVKYTGEGFVEKFEDILKGFPNINDVHPFHRDLMDTLYEKNHYKISLAAISRAKSLVEQVARDYVRLLKFGQSLFQCKQLKRAALGRMATIVKKLRDPLAYLEQVRQHIGRLPSIDPNTRTLLICGYPNVGKSSFLRCITKSDVDVQPYAFTTKSLYVGHFDYKYLRFQAIDTPGILDRPTEEMNNIEMQSIYAIAHLRSCVLYFMDLSEQCGFTIEAQVKLFHSIKPLFANKSVMVVINKTDIIRPEDLDEERAQLLESVKEVPGVEIMTSSCQLEENVMEVRNKACEKLLASRIENKLKSQSRINNVLNKIHVAQPQARDDVKRTPFIPESVKNLKKYDPEDPNRRKLARDIEAENGGAGVFNVNLKDKYLLEDDEWKNDIMPEILDGKNVYDFLDPEIAAKLQALEEEEEKLENEGFYNSDDEEEIYDGFEASEVDDIKEKAAWIRNRQKTMIAEARNRKSLKNKAIMPRSKLTKSFGKMEEHMSTLGHDMSALQDKQNRAARKNRYVERGSDVVFGDQDALTASTENGVKLRQTDRLLDGVADGSMRSKADRMAKMERRERNRHAKQGESDRHNAVSLSKHLFSGKRGVGKTDFR |
| binds | – | Sqt1 (protein, UniProt P35184 1-431) MEPQEEFITTEEVEQEIVPTVEVEQDVPVDIEGENDDDDEMMNDDEEALEVDMSNNSLTYFDKHTDSVFAIGHHPNLPLVCTGGGDNLAHLWTSHSQPPKFAGTLTGYGESVISCSFTSEGGFLVTADMSGKVLVHMGQKGGAQWKLASQMQEVEEIVWLKTHPTIARTFAFGATDGSVWCYQINEQDGSLEQLMSGFVHQQDCSMGEFINTDKGENTLELVTCSLDSTIVAWNCFTGQQLFKITQAEIKGLEAPWISLSLAPETLTKGNSGVVACGSNNGLLAVINCNNGGAILHLSTVIELKPEQDELDASIESISWSSKFSLMAIGLVCGEILLYDTSAWRVRHKFVLEDSVTKLMFDNDDLFASCINGKVYQFNARTGQEKFVCVGHNMGVLDFILLHPVANTGTEQKRKVITAGDEGVSLVFEVPN |
| binds | – | Rpl10 (protein, UniProt P41805 1-221) MARRPARCYRYQKNKPYPKSRYNRAVPDSKIRIYDLGKKKATVDEFPLCVHLVSNELEQLSSEALEAARICANKYMTTVSGRDAFHLRVRVHPFHVLRINKMLSCAGADRLQQGMRGAWGKPHGLAARVDIGQIIFSVRTKDSNKDVVVEGLRRARYKFPGQQKIILSKKWGFTNLDRPEYLKKREAGEVKDDGAFVKFLSKKGSLENNIREFPEYFAAQA |
| binds | – | Mtr2 (protein, UniProt P34232 1-184) MNTNSNTMVMNDANQAQITATFTKKILAHLDDPDSNKLAQFVQLFNPNNCRIIFNATPFAQATVFLQMWQNQVVQTQHALTGVDYHAIPGSGTLICNVNCKVRFDESGRDKMGQDATVPIQPNNTGNRNRPNDMNKPRPLWGPYFGISLQLIIDDRIFRNDFNGVISGFNYNMVYKPEDSLLKI |
